PubChem BioAssay AID1259425, University of Nebraska Medical Center | 2018
In all, the deposit lists about 14,000 reagents; shown is a random part of them. The record does not give: the time to read-out.

Assay: 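Seek colon cancer weak points whose silencing resembles KSR1 loss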 (primary screen)
System: HCT116 human colon cancer cells
Reagents: siRNA pool against human genes, 50 nM siRNA
Measured: 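mRNA of six signature genes measured together by branched-DNA assay after 50 nM siRNA pool, blank removed, divided by geometric mean of two housekeeping genes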
Scale: BNIP3L mRNA: higher = more BNIP3L transcript after knockdown; NDRG1 mRNA: higher = more NDRG1 transcript after knockdown; BNIP3 mRNA: higher = more BNIP3 transcript after knockdown; ALDOC mRNA: higher = more ALDOC transcript after knockdown; ACSL5 mRNA: higher = more ACSL5 transcript after knockdown

| gene | BNIP3L mRNA, set 1 | NDRG1 mRNA, set 1 | BNIP3 mRNA, set 1 | ALDOC mRNA, set 1 | ACSL5 mRNA, set 1 |
| --- | --- | --- | --- | --- | --- |
| MDK | 0.0875 | 0.286 | 0.258 | 0.0188 | 0.135 |
| ZNF254 | 0.117 | 0.222 | 0.294 | 0.0356 | 0.173 |
| CWF19L1 | 0.188 | 0.364 | 0.345 | 0.0733 | 0.287 |
| NPY5R | 0.172 | 0.195 | 0.3 | 0.0393 | 0.379 |
| JPH4 | 0.0804 | 0.0603 | 0.177 | 0.0323 | 0.132 |
| BASP1 | 0.0743 | 0.225 | 0.301 | 0.0275 | 0.0944 |
| ZNF225 | 0.142 | 0.141 | 0.317 | 0.0236 | 0.161 |
| DIP2C | 0.105 | 0.0836 | 0.284 | 0.0157 | 0.228 |
| UBQLN4 | 0.106 | 0.444 | 0.216 | 0.0843 | 0.573 |
| GARNL3 | 0.287 | 0.199 | 0.311 | 0.145 | 0.642 |
| AFG3L2 | 0.0983 | 0.849 | 0.263 | 0.0314 | 0.235 |
| MATN1 | 0.152 | 0.941 | 0.277 | 0.0498 | 0.311 |
| TMEM53 | 0.133 | 0.177 | 0.23 | 0.00498 | 0.438 |
| AEN | 0.127 | 0.254 | 0.353 | 0.0457 | 0.177 |
| MC5R | 0.142 | 0.515 | 0.42 | 0.0441 | 0.279 |
| ZC2HC1A | 0.307 | 0.672 | 0.481 | 0.0569 | 0.278 |
| ZNF138 | 0.0745 | 0.0999 | 0.226 | 0.0127 | 0.151 |

The list goes on, starting with the last 3 of the part before.
| gene | BNIP3L mRNA, set 1 | NDRG1 mRNA, set 1 | BNIP3 mRNA, set 1 | ALDOC mRNA, set 1 | ACSL5 mRNA, set 1 |
| --- | --- | --- | --- | --- | --- |
| MC5R | 0.142 | 0.515 | 0.42 | 0.0441 | 0.279 |
| ZC2HC1A | 0.307 | 0.672 | 0.481 | 0.0569 | 0.278 |
| ZNF138 | 0.0745 | 0.0999 | 0.226 | 0.0127 | 0.151 |
| IL17D | 0.128 | 0.0663 | 0.298 | 0.0241 | 0.0943 |
| RAD9A | 0.135 | 0.0959 | 0.279 | 0.0202 | 0.126 |
| GAL3ST1 | 0.202 | 0.231 | 0.627 | 0.0217 | 0.098 |
| NANP | 0.115 | 0.224 | 0.23 | 0.0167 | 0.29 |
| CSAD | 0.15 | 0.235 | 0.227 | 0.0547 | 0.182 |
| ASH2L | 0.135 | 0.194 | 0.379 | 0.0315 | 0.288 |
| LSP1 | 0.0979 | 0.241 | 0.196 | 0.0396 | 0.397 |
| SH3KBP1 | 0.2 | 0.496 | 0.257 | 0.0168 | 0.281 |
| CPPED1 | 0.0876 | 0.307 | 0.32 | 0.0349 | 0.2 |
| HAVCR2 | 0.0997 | 0.414 | 0.201 | 0.0303 | 0.238 |
| CISD1 | 0.0962 | 0.066 | 0.345 | 0.0365 | 0.111 |
| UPF3B | 0.132 | 0.177 | 0.207 | 0.042 | 0.184 |
| MYOM1 | 0.163 | 0.319 | 0.603 | 0.102 | 0.139 |
| REN | 0.191 | 0.395 | 0.344 | 0.0322 | 0.263 |
| KCNH2 | 0.0957 | 0.253 | 0.196 | 0.018 | 0.0826 |
| RARG | 0.0709 | 0.122 | 0.269 | 0.0162 | 0.126 |
| CEBPB | 0.0795 | 0.0894 | 0.336 | 0.0165 | 0.136 |
| LAD1 | 0.0445 | 0.0307 | 0.29 | 0.0112 | 0.0401 |
| ARL3 | 0.139 | 0.215 | 0.275 | 0.0226 | 0.153 |
| CAPRIN2 | 0.139 | 0.256 | 0.34 | 0.0358 | 0.242 |
| EGFL8 | 0.146 | 0.533 | 0.42 | 0.0516 | 0.343 |
| PACS1 | 0.0937 | 0.345 | 0.374 | 0.0211 | 0.21 |
| DMTN | 0.0826 | 0.0991 | 0.281 | 0.0351 | 0.21 |
| TLN2 | 0.1 | 0.173 | 0.38 | 0.00958 | 0.205 |
| PGCKA1 | 0.116 | 0.419 | 0.27 | 0.0258 | 0.223 |
| NISCH | 0.116 | 0.332 | 0.299 | 0.0385 | 0.254 |
| CLEC4E | 0.111 | 0.318 | 0.407 | 0.0244 | 0.267 |
| CEP126 | 0.0785 | 0.11 | 0.257 | 0.019 | 0.12 |
| MAST2 | 0.0603 | 0.11 | 0.372 | 0.00604 | 0.0993 |
| UBE3C | 0.098 | 0.0667 | 0.292 | 0.0331 | 0.0829 |
| USP14 | 0.106 | 0.128 | 0.113 | 0.0352 | 0.231 |
| SLC7A1 | 0.0701 | 0.0819 | 0.247 | 0.0287 | 0.0409 |
| EMILIN2 | 0.132 | 0.385 | 0.339 | 0.0425 | 0.323 |
